PubChem BioAssay AID1224830 | NIAID – 2016
Test: 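Regulators of TLR4 signalling towards TNF-alpha in macrophage-like cells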 (primary screen). Cells: human THP-1 monocytic leukaemia cells, TNF dual-luciferase reporter clone, PMA-differentiated to macrophage-like cells. Knock-down reagent: siRNA pool against human genes, 50 nM. Timing: LPS for 4 h, given about 3 days after siRNA transfection. Challenge: bacterial LPS (TLR4 ligand), 10 ng/ml. Read-out: 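Ratio of firefly to renilla light, scaled to the plate median and expressed as a robust z-score per replicate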. Reading the numbers: TNF reporter robust z-score: higher = stronger TNF reporter response to LPS. Call rule: 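a well is active when its z-score exceeds 2.8 or falls below -1.5; control wells carry no call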.
The deposit covers about 18,000 reagents; below is an unselected part. About 2,900 of them (16%) were called active. 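Calls are made per well; low scores hint the gene aids the LPS response, high scores that it dampens it.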 Repeated entries: four replicate wells of each siRNA pool. No sequences are given here.

no.	gene	TNF reporter robust z-score	Outcome
1	APRG1 (APRG1 tumor suppressor candidate)	-0.79	inactive
2	APRG1 (APRG1 tumor suppressor candidate)	-1.11	inactive
3	APRG1 (APRG1 tumor suppressor candidate)	-0.08	inactive
4	APRG1 (APRG1 tumor suppressor candidate)	-0.2	inactive
5	ANG (angiogenin)	1.59	inactive
6	ANG (angiogenin)	1.65	inactive
7	ANG (angiogenin)	2.42	inactive
8	ANG (angiogenin)	2.95	active
9	CA10 (carbonic anhydrase 10 (inactive))	-0.94	inactive
10	CA10 (carbonic anhydrase 10 (inactive))	0.34	inactive
11	CA10 (carbonic anhydrase 10 (inactive))	-0.7	inactive
12	CA10 (carbonic anhydrase 10 (inactive))	0.9	inactive
13	GOLT1A (golgi transport 1A)	1.55	inactive
14	GOLT1A (golgi transport 1A)	1.45	inactive
15	GOLT1A (golgi transport 1A)	0.62	inactive
16	GOLT1A (golgi transport 1A)	2.98	active
17	PDGFB (platelet derived growth factor subunit B)	-0.7	inactive
18	PDGFB (platelet derived growth factor subunit B)	-0.46	inactive
19	PDGFB (platelet derived growth factor subunit B)	-0.58	inactive
20	PDGFB (platelet derived growth factor subunit B)	-0.66	inactive
21	WHRN (whirlin)	0.23	inactive
22	WHRN (whirlin)	0.48	inactive
23	WHRN (whirlin)	-0.12	inactive
24	WHRN (whirlin)	0.63	inactive
25	AGAP6 (ArfGAP with GTPase domain, ankyrin repeat and PH domain 6)	-0.75	inactive
26	AGAP6 (ArfGAP with GTPase domain, ankyrin repeat and PH domain 6)	-0.58	inactive
27	AGAP6 (ArfGAP with GTPase domain, ankyrin repeat and PH domain 6)	-0.39	inactive
28	AGAP6 (ArfGAP with GTPase domain, ankyrin repeat and PH domain 6)	-0.41	inactive
29	ATE1 (arginyltransferase 1)	0.57	inactive
30	ATE1 (arginyltransferase 1)	1.17	inactive
31	ATE1 (arginyltransferase 1)	-0.27	inactive
32	ATE1 (arginyltransferase 1)	0.75	inactive
33	THOC5 (THO complex subunit 5)	0.25	inactive
34	THOC5 (THO complex subunit 5)	1.23	inactive
35	THOC5 (THO complex subunit 5)	-0.45	inactive
36	THOC5 (THO complex subunit 5)	0.45	inactive
37	SPOCK1	0.34	inactive
38	SPOCK1	-0.19	inactive
39	SPOCK1	-0.04	inactive
40	KRT82 (keratin 82)	-0.84	inactive
41	KRT82 (keratin 82)	-0.32	inactive
42	KRT82 (keratin 82)	-0.77	inactive
43	KRT82 (keratin 82)	-0.82	inactive
44	PID1 (phosphotyrosine interaction domain containing 1)	-0.14	inactive
45	PID1 (phosphotyrosine interaction domain containing 1)	0.75	inactive
46	PID1 (phosphotyrosine interaction domain containing 1)	0.5	inactive
47	CFAP43 (cilia and flagella associated protein 43)	0.98	inactive
48	CFAP43 (cilia and flagella associated protein 43)	1.8	inactive
49	CFAP43 (cilia and flagella associated protein 43)	0.6	inactive
50	CFAP43 (cilia and flagella associated protein 43)	1.12	inactive
51	HNRNPUL2 (heterogeneous nuclear ribonucleoprotein U like 2)	0.74	inactive
52	HNRNPUL2 (heterogeneous nuclear ribonucleoprotein U like 2)	1.18	inactive
53	HNRNPUL2 (heterogeneous nuclear ribonucleoprotein U like 2)	0.15	inactive
54	HNRNPUL2 (heterogeneous nuclear ribonucleoprotein U like 2)	0.3	inactive
55	KDM1A (lysine demethylase 1A)	0.03	inactive
56	KDM1A (lysine demethylase 1A)	0.51	inactive
57	KDM1A (lysine demethylase 1A)	-0.59	inactive
58	KDM1A (lysine demethylase 1A)	1.08	inactive
59	TMEM8B (transmembrane protein 8B)	0.36	inactive
60	TMEM8B (transmembrane protein 8B)	-1.13	inactive
61	TMEM8B (transmembrane protein 8B)	-0.38	inactive
62	TMEM8B (transmembrane protein 8B)	-0.22	inactive
63	KCNG4	1.82	inactive
64	KCNG4	0.86	inactive
65	KCNG4	0.89	inactive
66	KCNG4	1.73	inactive
67	CRYBG3 (crystallin beta-gamma domain containing 3)	-0.51	inactive
68	CRYBG3 (crystallin beta-gamma domain containing 3)	-0.65	inactive
69	CRYBG3 (crystallin beta-gamma domain containing 3)	0.41	inactive
70	CRYBG3 (crystallin beta-gamma domain containing 3)	0.9	inactive
71	ASCL4 (achaete-scute family bHLH transcription factor 4)	1.02	inactive
72	ASCL4 (achaete-scute family bHLH transcription factor 4)	-0.39	inactive
73	ASCL4 (achaete-scute family bHLH transcription factor 4)	0.02	inactive
74	ASCL4 (achaete-scute family bHLH transcription factor 4)	0.33	inactive

The list goes on (14 carried over from the part before).
no.	gene	TNF reporter robust z-score	Outcome
61	TMEM8B (transmembrane protein 8B)	-0.38	inactive
62	TMEM8B (transmembrane protein 8B)	-0.22	inactive
63	KCNG4	1.82	inactive
64	KCNG4	0.86	inactive
65	KCNG4	0.89	inactive
66	KCNG4	1.73	inactive
67	CRYBG3 (crystallin beta-gamma domain containing 3)	-0.51	inactive
68	CRYBG3 (crystallin beta-gamma domain containing 3)	-0.65	inactive
69	CRYBG3 (crystallin beta-gamma domain containing 3)	0.41	inactive
70	CRYBG3 (crystallin beta-gamma domain containing 3)	0.9	inactive
71	ASCL4 (achaete-scute family bHLH transcription factor 4)	1.02	inactive
72	ASCL4 (achaete-scute family bHLH transcription factor 4)	-0.39	inactive
73	ASCL4 (achaete-scute family bHLH transcription factor 4)	0.02	inactive
74	ASCL4 (achaete-scute family bHLH transcription factor 4)	0.33	inactive
75	LITAF (lipopolysaccharide induced TNF factor)	-2.13	active
76	LITAF (lipopolysaccharide induced TNF factor)	-1.75	active
77	LITAF (lipopolysaccharide induced TNF factor)	-1.58	active
78	LITAF (lipopolysaccharide induced TNF factor)	-0.96	inactive
79	CYP26B1 (cytochrome P450 family 26 subfamily B member 1)	-0.4	inactive
80	CYP26B1 (cytochrome P450 family 26 subfamily B member 1)	-0.19	inactive
81	CYP26B1 (cytochrome P450 family 26 subfamily B member 1)	1.14	inactive
82	CYP26B1 (cytochrome P450 family 26 subfamily B member 1)	1.35	inactive
83	ITGA11 (integrin subunit alpha 11)	-0.59	inactive
84	ITGA11 (integrin subunit alpha 11)	-0.35	inactive
85	ITGA11 (integrin subunit alpha 11)	-0.74	inactive
86	ITGA11 (integrin subunit alpha 11)	0.2	inactive
87	HSP90B1 (heat shock protein 90 beta family member 1)	-1.76	active
88	HSP90B1 (heat shock protein 90 beta family member 1)	-1.74	active
89	HSP90B1 (heat shock protein 90 beta family member 1)	-1.88	active
90	TBR1 (T-box brain transcription factor 1)	-0.02	inactive
91	TBR1 (T-box brain transcription factor 1)	-0.03	inactive
92	TBR1 (T-box brain transcription factor 1)	-0.63	inactive
93	TBR1 (T-box brain transcription factor 1)	0.88	inactive
94	SPAG7 (sperm associated antigen 7)	-0.39	inactive
95	SPAG7 (sperm associated antigen 7)	1.67	inactive
96	SPAG7 (sperm associated antigen 7)	-0.17	inactive
97	SPAG7 (sperm associated antigen 7)	0.95	inactive
98	UACA	4.6	active
99	UACA	3.99	active
100	UACA	3.72	active
101	UACA	5.34	active
102	ARPC5L (actin related protein 2/3 complex subunit 5 like)	-0.32	inactive
103	ARPC5L (actin related protein 2/3 complex subunit 5 like)	0.16	inactive
104	ARPC5L (actin related protein 2/3 complex subunit 5 like)	1.88	inactive
105	KRT71 (keratin 71)	2.16	inactive
106	KRT71 (keratin 71)	1.4	inactive
107	KRT71 (keratin 71)	1.49	inactive
108	KRT71 (keratin 71)	1.61	inactive
109	GOLGA8A (golgin A8 family member A)	1.91	inactive
110	GOLGA8A (golgin A8 family member A)	3.12	active
111	GOLGA8A (golgin A8 family member A)	2.57	inactive
112	GOLGA8A (golgin A8 family member A)	1.14	inactive
113	CRYBB1 (crystallin beta B1)	0.09	inactive
114	CRYBB1 (crystallin beta B1)	1.2	inactive
115	CRYBB1 (crystallin beta B1)	1.47	inactive
116	CRYBB1 (crystallin beta B1)	0.98	inactive
117	KLHDC7A (kelch domain containing 7A)		inactive
118	NDUFAF4 (NADH:ubiquinone oxidoreductase complex assembly factor 4)	0.36	inactive
119	NDUFAF4 (NADH:ubiquinone oxidoreductase complex assembly factor 4)	-0.84	inactive
120	NDUFAF4 (NADH:ubiquinone oxidoreductase complex assembly factor 4)	-0.48	inactive
121	NDUFAF4 (NADH:ubiquinone oxidoreductase complex assembly factor 4)	-0.54	inactive
122	TAFA5 (TAFA chemokine like family member 5)	-0.11	inactive
123	TAFA5 (TAFA chemokine like family member 5)	-0.94	inactive
124	TAFA5 (TAFA chemokine like family member 5)	-0.75	inactive
125	TAFA5 (TAFA chemokine like family member 5)	-1.07	inactive
126	TUBAL3 (tubulin alpha like 3)	-0.36	inactive
127	TUBAL3 (tubulin alpha like 3)	-0.11	inactive
128	TUBAL3 (tubulin alpha like 3)	-0.54	inactive
129	TUBAL3 (tubulin alpha like 3)	0.13	inactive
130	KRT9 (keratin 9)	-1.54	active
131	KRT9 (keratin 9)	-1.19	inactive
132	KRT9 (keratin 9)	-1.15	inactive
133	KRT9 (keratin 9)	-1.32	inactive
134	SLC25A15	-1.8	active
135	SLC25A15	0.49	inactive
136	SLC25A15	-0.73	inactive
137	SLC25A15	0.18	inactive
138	MMP2 (matrix metallopeptidase 2)	1.02	inactive
139	MMP2 (matrix metallopeptidase 2)	0.01	inactive
140	MMP2 (matrix metallopeptidase 2)	1.84	inactive
